Source: article PMC5496739

The chains behind the UniProt entries cited, without tags or fusion partners. Where a name states a change or a piece, a line headed by the entry shows the natural chain unless it says otherwise.
UniProt Q80U40: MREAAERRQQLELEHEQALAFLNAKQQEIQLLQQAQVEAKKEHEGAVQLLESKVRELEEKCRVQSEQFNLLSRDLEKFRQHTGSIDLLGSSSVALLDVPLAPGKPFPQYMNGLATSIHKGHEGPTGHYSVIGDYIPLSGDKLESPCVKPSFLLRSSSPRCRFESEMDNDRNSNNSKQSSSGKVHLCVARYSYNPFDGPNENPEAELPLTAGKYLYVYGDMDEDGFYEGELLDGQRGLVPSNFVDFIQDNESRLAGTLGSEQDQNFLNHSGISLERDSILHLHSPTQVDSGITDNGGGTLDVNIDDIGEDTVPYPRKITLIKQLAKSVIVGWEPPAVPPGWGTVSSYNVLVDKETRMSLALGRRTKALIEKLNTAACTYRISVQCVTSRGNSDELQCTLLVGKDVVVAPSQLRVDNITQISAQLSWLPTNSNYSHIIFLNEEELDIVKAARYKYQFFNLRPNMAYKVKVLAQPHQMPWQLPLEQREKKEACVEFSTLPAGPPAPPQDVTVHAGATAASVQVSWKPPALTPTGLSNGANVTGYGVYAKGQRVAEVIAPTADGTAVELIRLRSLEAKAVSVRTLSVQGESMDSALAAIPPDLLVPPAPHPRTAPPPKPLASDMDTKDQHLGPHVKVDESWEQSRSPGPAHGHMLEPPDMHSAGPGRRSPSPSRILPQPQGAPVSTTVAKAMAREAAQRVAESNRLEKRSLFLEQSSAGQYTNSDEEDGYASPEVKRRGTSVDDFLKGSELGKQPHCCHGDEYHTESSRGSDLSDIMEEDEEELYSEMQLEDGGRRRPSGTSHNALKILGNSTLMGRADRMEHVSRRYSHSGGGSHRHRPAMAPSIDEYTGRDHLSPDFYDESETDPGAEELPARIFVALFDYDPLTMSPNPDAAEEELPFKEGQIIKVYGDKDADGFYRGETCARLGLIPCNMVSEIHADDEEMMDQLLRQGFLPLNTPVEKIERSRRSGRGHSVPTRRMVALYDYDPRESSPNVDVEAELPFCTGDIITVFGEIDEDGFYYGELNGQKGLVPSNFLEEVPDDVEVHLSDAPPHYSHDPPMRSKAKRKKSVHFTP

Columns and labels:
[1] = biological target: T1, exophilin-8 (wild type) expressed in HEK293A cells (mouse) (UniProt Q8K3I4); assay: co-IP; HEK293A cells transfected with plasmids for RIM-BP2, exophilin-8 and their deletion or point mutants; immunoprecipitates with anti-FLAG or anti-HA antibodies blotted with anti-FLAG, anti-GFP and anti-HA
T1 sequence: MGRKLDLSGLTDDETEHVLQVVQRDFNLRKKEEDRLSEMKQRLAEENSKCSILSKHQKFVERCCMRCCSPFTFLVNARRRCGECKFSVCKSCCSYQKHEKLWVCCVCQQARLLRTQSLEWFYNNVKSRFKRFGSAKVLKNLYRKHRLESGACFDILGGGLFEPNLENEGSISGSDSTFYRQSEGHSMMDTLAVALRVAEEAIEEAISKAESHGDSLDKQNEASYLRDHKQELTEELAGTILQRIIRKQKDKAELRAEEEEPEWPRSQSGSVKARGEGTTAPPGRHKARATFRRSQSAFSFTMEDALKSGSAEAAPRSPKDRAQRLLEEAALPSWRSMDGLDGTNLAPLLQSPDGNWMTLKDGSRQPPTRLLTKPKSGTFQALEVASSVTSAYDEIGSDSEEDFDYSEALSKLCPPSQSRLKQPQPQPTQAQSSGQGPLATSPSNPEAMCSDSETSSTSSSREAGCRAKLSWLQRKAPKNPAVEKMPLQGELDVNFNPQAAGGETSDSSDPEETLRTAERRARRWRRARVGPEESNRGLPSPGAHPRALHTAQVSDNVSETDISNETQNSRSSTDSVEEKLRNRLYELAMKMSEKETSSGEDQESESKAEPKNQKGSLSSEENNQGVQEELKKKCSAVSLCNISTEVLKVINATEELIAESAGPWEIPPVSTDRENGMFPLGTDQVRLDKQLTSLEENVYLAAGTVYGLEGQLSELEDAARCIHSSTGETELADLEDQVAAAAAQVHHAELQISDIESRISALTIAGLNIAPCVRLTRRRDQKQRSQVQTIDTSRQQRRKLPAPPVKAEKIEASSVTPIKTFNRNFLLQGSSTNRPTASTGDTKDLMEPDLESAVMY

MEF-RIM-BP2ΔSH3 (mouse) = MEF-RIM-BP2ΔSH3 (mouse) (UniProt Q80U40); assay: co-IP; INS-1 832/13 cells infected with adenovirus encoding GFP, MEF-RIM-BP2 or MEF-RIM-BP2ΔSH3; anti-FLAG immunoprecipitates blotted with anti-exophilin-8 and anti-myosin-VIIa

RIM-BP2 first SH3 domain (from UniProt Q80U40) (domain or fragment)
binding [1]: binds

RIM-BP2 third SH3 domain (from UniProt Q80U40) (domain or fragment)
binding [1]: binds

B1: exophilin-8, endogenous in INS-1 832/13 cells (protein, UniProt Q7TNY7 1-856)
chain: MGRKLDLSGLTDDETEHVLQVVQRDFNLRKKEEDRLSEMKQRLAEENSKCSILSKHQKFVERCCMRCCSPFTFLVNARRRCGECKFSVCKSCCSYQKHEKLWVCCVCQQARLLRTQSLEWFYNNVKTRFKRFGSAKVLKNLYKKHRLESGACFDILGGGLYEPNLENEGSISGSDSTFYRQSEGHSMMDTLAVALQVAEEAIEEAISKAESQRDSLDKQNEASYLRDHRQELAEELAGTILQRIIRKQKDKADLHAEEEEPECTRPQSSGVKARGEGTAAPPGRHKARAALWRSQSAFSFTTEDTLKTSSAEAAPRQPKDRAQRLLEESALPSWRSMDGLDGKNLVPLLQSPDGNWMTLKDSSRQPPTRLLAKPKSRTFQALEVASSVASAYDELGSDSEEDFDYSEALSKLRPPSQGRLKQPQPQPAQAQSSGQGPLATSPSNPEAMCSDSETSSTSSSREAGCRAKLLWLQRKAPKNPSAEKTHLQGELDVNFNPQAAGGETSDSSDPEETLHTADRRARRWRRARVGPEESNRGLPSPSAYPPALHTAQVSDNVSETDISNEAQNSRSSTDSAEEKLRNRLYELAMKMSEKETSSGEDQESESKTEPKNQKGSLSSEENNQGVQEELKKKCSAVSLCNISTEVLKVINATEELIAESAGPWEIPPVSTDRDNGMFPLGTDQRSLDKQLTSLEENVYLAAGTVYGLEGQLSELEDAARCIHSSTGETELADLEDQVAAAAAQVHHAELQISDIESRISALTIAGLNIAPCVRLTRRRDQKQRSQVQTIDTSRQQRRKLPAPPVKAEKIEASSVTPIKTFNRNFLLQGSSTNRPTASTSNTKDLMEPVLESAVMY
binding (MEF-RIM-BP2ΔSH3 (mouse)): no binding

These are yes or no findings as the source states them, for the method shown. In cells and extracts the contact can be indirect. For part of these data: A result given as binding can be weak or reduced; the word gives no strength.
